Experimental data from PubChem BioAssay AID1487 (National Center for Advancing Translational Sciences (NCATS), 2009).
Some of the results follow. The main result of the screen is listed elsewhere. These columns were measured beside it and carry no call. Compounds called inactive in the main read-out are mostly missing here. Words in brackets tell the shape of the fitted curve; partial curves, single points and poor fits give uncertain potencies.

Test: qHTS Assay for Modulators of Lamin A Splicing
Conditions: HeLa LMNA splicing GFP/RFP minigene ratio, 48 h
In short: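 Read-out is the ratio of GFP to DsRed2 object intensity, acquired by 488 nm laser-scanning cytometry on HeLa lamin A-EGFP minigene reporter cells. Compound incubation 48 hrs at 37 °C in Opti-MEM with 2% FBS; DMSO 0.5% final.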

[1] = measured here: RFP viability control channel
[2] = measured here: GFP splicing reporter channel

Row | Compound | AC50 [1] | AC50 [2]
1 | O=C(c1ccc(-c2ccc(Cl)cc2)o1)N1CCN(c2ccc([N+](=O)[O-])cc2Cl)CC1 | 5.62 µM [rising, full curve] | 
2 | COc1ccc(CC(=O)Nc2nnc(SCc3ccccc3)s2)cc1S(=O)(=O)N1CCOCC1 | 15.8 µM [rising, single point] | 
3 | CCC(=O)N(Cc1c(C)nn(-c2ccccc2)c1Cl)c1ccc(Cl)cc1 | 28.2 µM [rising, single point] | 12.6 µM [rising, single point]
4 | COCCN(CCOC)C(=O)COC(=O)c1ccc(Cl)c(S(=O)(=O)N(C)c2ccccc2)c1 | 35.5 µM [rising, single point] | 
5 | COC(=O)c1ccc(CN2CCC(CO)(Cc3cccc(OC)c3)CC2)cc1 | 0.398 µM [falling, full curve] | 
6 | COc1ccc(NC(=O)C2(c3cccs3)CCOCC2)cc1Cl | 0.00708 µM [falling, full curve, poor fit] | 
7 | NC(=O)COc1ccc(NC(=O)c2ccccc2-c2ccccc2)cc1 |  | 0.00708 µM [rising, full curve, poor fit]
8 | COCCn1c(-c2ccc(Cl)cc2)cnc1SCC(=O)NCCc1ccc(OC)c(OC)c1 | 35.5 µM [rising, single point] | 35.5 µM [rising, single point]
9 | Cc1cc(Nc2sc(C(=O)c3ccc(F)cc3)c(N)c2C(=O)Nc2ccc(F)cc2)ccc1Cl | 3.55 µM [rising, partial curve] | 2.82 µM [rising, partial curve]
10 | Cc1ccc(C(=O)NC2(C(F)(F)F)NC(=O)N(c3ccc(Cl)cc3)C2=O)cc1 (stereo not drawn) | 15.8 µM [rising, partial curve] | 28.2 µM [rising, single point]
11 | Cc1ccc(Cl)cc1N1CCN(CCCNc2ncnc3onc(-c4ccc(F)cc4)c23)CC1 |  | 35.5 µM [falling, single point]
12 | O=C(CNc1ccccc1)NN=C1CCCC1 | 11.2 µM [rising, partial curve] | 
13 | CC1CCN(c2nc(/C=C/c3ccccc3)nc3ccccc23)CC1 | 14.1 µM [rising, partial curve] | 
14 | COc1ccc(CC(=O)NC2CC(=O)N(c3ccc4c(c3)OCCO4)C2)cc1 (stereo not drawn) | 0.00398 µM [falling, full curve, poor fit] | 0.224 µM [falling, full curve, poor fit]
15 | Cc1nn(C)c(C)c1S(=O)(=O)N(CC(=O)Nc1ccc2c(c1)OCO2)c1ccc(C(C)C)cc1 | 11.2 µM [rising, partial curve, poor fit] | 
16 | C=CCNC(=S)N/N=C/c1ccc(C(C)(C)C)cc1 | 35.5 µM [falling, single point] | 
17 | Cc1cccc(CSc2ccc3nnc(-c4cccnc4)n3n2)c1 | 5.01 µM [rising, partial curve] | 
18 | CCOc1cc(N(CC)CC)ccc1/C=C(/C#N)c1nc2ccccc2[nH]1 | 7.94 µM [falling, single point] | 0.0251 µM [rising, single point]
19 | CCOC(=O)c1c(C)oc2nc(C)nc(NCc3ccc(C)cc3)c12 |  | 39.8 µM [falling, partial curve, poor fit]

Row | Compound | AC50 [1] | AC50 [2]
20 | CCOc1ccc(Br)cc1S(=O)(=O)Nc1ccc(Cl)c(S(=O)(=O)N(C)C)c1 | 0.00355 µM [rising, full curve, poor fit] | 
21 | CC1CN(CCc2ccccc2)c2nc3c(c(=O)[nH]c(=O)n3C)n2C1 (stereo not drawn) | 0.0282 µM [rising, full curve, poor fit] | 0.112 µM [rising, full curve, poor fit]
22 | COc1ccc(NC(=O)C2CCN(c3cc(-c4ccccc4)nc4ncnn34)CC2)cc1OC | 10 µM [rising, partial curve, poor fit] | 5.62 µM [rising, partial curve, poor fit]
23 | C=CCn1c(O)c(N=NC(=S)Nc2ccccc2F)c2ccccc21 | 35.5 µM [falling, single point] | 
24 | O=C(NCCc1ccccc1F)C1CCCN1S(=O)(=O)c1ccc2ccccc2c1 (stereo not drawn) | 12.6 µM [rising, partial curve, poor fit] | 
25 | CCOC(=O)c1cnc2ccccc2c1Nc1ccc2c(c1)OCCO2 | 15.8 µM [rising, single point] | 
26 | Cc1cc(C)nc(Sc2c(C)nn(-c3ccccc3)c2C)n1 | 35.5 µM [rising, single point] | 
27 | COc1ccc(OC(=O)c2ccncc2)cc1 |  | 10 µM [falling, single point]
28 | O=C(Nc1ccc(N2CCC(N3CCCCC3)CC2)c(C(=O)O)c1)c1ccccc1 |  | 0.282 µM [rising, full curve, poor fit]
29 | CC1CCN(C(=O)c2cnn(-c3ccc(Cl)cc3)c2C2CCN(C(=O)OC(C)(C)C)CC2)CC1 | 0.282 µM [falling, full curve, poor fit] | 
30 | Cc1nnsc1C(=O)N/N=C/c1ccccc1 |  | 1.41 µM [falling, full curve, poor fit]
31 | CCOC(=O)c1[nH]cnc1C(=O)Nc1ccccc1C | 2.82 µM [rising, full curve, poor fit] | 0.501 µM [rising, full curve, poor fit]
32 | O=C(CC(SCCO)c1ccc2c(c1)OCO2)c1cccs1 (stereo not drawn) | 17.8 µM [rising, single point] | 
33 | Clc1ccc(CO/N=C2\CCCc3nonc32)c(Cl)c1 | 35.5 µM [rising, single point] | 
34 | CCCOc1ccc(NC(=O)CC2C(=O)N(C)C(=S)N2Cc2cccs2)cc1 (stereo not drawn) | 35.5 µM [rising, single point] | 
35 | Cc1cccc(-n2ccnc2SCC(=O)Nc2nccs2)c1 | 12.6 µM [rising, partial curve, poor fit] | 12.6 µM [rising, single point]
36 | COc1ccc(CNC(=O)CN(c2ccccc2OC)S(=O)(=O)c2ccc(C)cc2)cc1 |  | 22.4 µM [falling, single point]
37 | O=c1ccnc(SCCC(F)=C(F)F)[nH]1 |  | 14.1 µM [rising, partial curve, poor fit]
38 | O=S(=O)(NCc1ccccc1)c1ccc(-c2cnc(C3CC3)o2)cc1 | 8.91 µM [rising, single point] | 

Single entries from above:
Under AC50 [1], CCOc1ccc(Br)cc1S(=O)(=O)Nc1ccc(Cl)c(S(=O)(=O)N(C)C)c1 shows 0.00355 µM [rising, full curve, poor fit]
Under AC50 [1], COc1ccc(NC(=O)C2CCN(c3cc(-c4ccccc4)nc4ncnn34)CC2)cc1OC shows 10 µM [rising, partial curve, poor fit]
Under AC50 [1], Cc1cccc(-n2ccnc2SCC(=O)Nc2nccs2)c1 shows 12.6 µM [rising, partial curve, poor fit]

The listing continues.

Row | Compound | AC50 [1] | AC50 [2]
39 | CC(=O)Nc1cccc(NC(=O)c2c(-c3c(Cl)cccc3Cl)noc2C)c1 | 31.6 µM [rising, single point] | 
40 | Cc1nc2cc(NS(=O)(=O)c3c(C)c(C)cc(C)c3C)ccc2s1 | 2.82 µM [rising, full curve] | 
41 | CCOc1ccc2[nH]c(=O)c(CN(Cc3ccc(F)cc3)C(=O)c3ccco3)cc2c1 | 35.5 µM [rising, single point] | 35.5 µM [rising, single point]
42 | CN(C)S(=O)(=O)c1ccc(NC(=O)CNc2cc(S(=O)(=O)N3CCCC3)ccc2OCC(F)(F)F)cc1 | 17.8 µM [rising, single point] | 11.2 µM [rising, single point]
43 | O=C(CSc1nnc(-c2ccc(NS(=O)(=O)c3ccccc3)cc2)o1)NCC1CCCO1 (stereo not drawn) | 14.1 µM [rising, single point] | 
44 | CN1CC(=O)N(CC(=O)N2N=C(c3ccc(Cl)cc3)CC2c2ccco2)C1=O (stereo not drawn) |  | 0.00316 µM [rising, full curve, poor fit]
45 | CCc1ccc(/C=C/C(=O)c2ccc(S(=O)(=O)N(C)C)cc2)cc1 | 35.5 µM [falling, single point] | 35.5 µM [falling, single point]
46 | Cc1cccc(C)c1OCC(=O)N/N=C/c1ccc2c(c1)OCO2 | 7.08 µM [falling, full curve, poor fit] | 7.08 µM [falling, full curve]
47 | O=c1c2ccccc2oc2nc3n(c(=O)c12)CCCS3 | 10 µM [rising, single point] | 
48 | Cc1ccc(NC(=O)CSc2nc3nccnc3c(=O)n2CCc2c[nH]c3ccccc23)cc1 | 1.78 µM [falling, partial curve] | 2.24 µM [falling, partial curve, poor fit]
49 | Cc1ccc(S(=O)(=O)N2CCN(C(C)C(=O)Nc3ccccc3-c3ccccc3)CC2)cc1 (stereo not drawn) | 28.2 µM [rising, partial curve] | 
50 | O=[N+]([O-])c1cc(C(F)(F)F)ccc1N1CCN(S(=O)(=O)c2ccc3c(c2)CCCC3)CC1 | 3.16 µM [rising, partial curve] | 2.82 µM [rising, single point]
51 | O=C(NC(=S)Nc1cccc(CO)c1)c1ccc(-c2ccccc2)cc1 | 35.5 µM [rising, single point] | 14.1 µM [rising, single point]
52 | COc1cc(CNc2ccc3[nH]c(=O)[nH]c3c2)ccc1OCc1ccccc1F |  | 5.01 µM [falling, partial curve, poor fit]
53 | COC(=O)c1sccc1NC(=O)CSc1nnnn1-c1ccccc1C | 25.1 µM [rising, single point] | 
54 | O=C(N/N=C/c1ccccc1O)C1SCCCS1 |  | 15.8 µM [falling, single point]
55 | COc1ccccc1Oc1c(C)oc2c(CN3CCN(CCO)CC3)c(O)ccc2c1=O | 22.4 µM [rising, single point] | 
56 | CC(=O)Nc1ccc(Oc2cc(N)cc([N+](=O)[O-])c2)cc1 | 35.5 µM [falling, single point] | 

Rewritten with tabs: two of the compounds above.
Row	Compound	AC50 [1]	AC50 [2]
36	COc1ccc(CNC(=O)CN(c2ccccc2OC)S(=O)(=O)c2ccc(C)cc2)cc1		22.4 µM [falling, single point]
37	O=c1ccnc(SCCC(F)=C(F)F)[nH]1		14.1 µM [rising, partial curve, poor fit]
